# Laboratory results from patent US20020147175A1, “Synergistic ECTA compositions” (priority 2000, published 2002).
# Some results were stated once for a whole list of compounds, not compound by compound. For some assays here: The name of at least one read-out is uncertain.
# Tests used:
# [1] = tested on: H630R10 cells; test: 384-well alamarBlue interaction screening assay with NB1011; type: cell-based, human; conditions: drug combined with NB1011, 5-day incubation, average of at least 4 consecutive dose/effect levels, listed as irinotecan
# Description: (§1) Normal human colon epithelial cells (CCD18co) and skin fibroblasts (Det551) were purchased from ATCC (Rockville, Md.). MCF7TDX, human breast carcinoma cells resistant to 2 μM Tomudex were obtained from Dr. Patrick Johnston, Queens University, Belfast. […] The MCF7TDX and the H630R10 cell lines have been previously described in Drake, J. C. et al., 1996 and Copur, S. et al., 1995, respectively.
# (§2) All cells were cultured under standard conditions of 37° C., 95% humidified air, 5% CO2 in RPMI 1640 culture medium containing 10% fetal calf serum (Life Technologies) and penicillin/streptomycin/fungizone. MCF7TDX cells were maintained continuously in 2 μM Tomudex, and H630R10 cells were maintained continuously in 10 μM 5-FU. The medium was renewed or the cells were passaged about every three days to maintain optimal growth conditions. […]
# (§3) 500 cells per well were transferred to a 384-well tissue culture plate (Corning Inc., Corning, N.Y.) and allowed to attach for 24 hours in standard culture conditions. […] Following a 5-day incubation, the redox indicator dye, alamarBlue (AccuMed International, Westlake, Ohio) was added to each well at a 10% v/v ratio, and fluorescence was monitored at 535 excitation, 595 emission. Cytotoxic effect levels and drug interactions were assessed by the combination index method (Chou, T. C. and Talalay, P. 1984 and Bible, K. C. et al. 1997), described briefly below. […]
# [2] = tested on: MCF7TDX cells; test: as above; type: cell-based, human; conditions: drug combined with NB1011, 5-day incubation, average of at least 4 consecutive dose/effect levels
# Description: as §1, §2, §3
compound,measurement,setting,value
CCc1c2c(nc3ccc(OC(=O)N4CCC(N5CCCCC5)CC4)cc13)-c1cc3c(c(=O)n1C2)COC(=O)[C@]3(O)CC [Irinotecan],Combination Index ± s.e.m.,[1],1-1.4
same,Combination Index ± s.e.m.,[2],1-1.4
